# Results reported in patent publication US20130059890A1, “ANTIVIRAL AGENTS” (SYDNEY WEST AREA HEALTH SERVICE, priority 2009, published 2013).
# Tested on: HCV (JFH-1) infected Huh7 cells
# Conditions: 24 hours
# Description: Huh7 cells were infected with the JFH-1 strain of hepatitis C virus (genotype 2a) as previously described in Wakita et al., (2005), “Production of infectious hepatitis C virus in tissue culture from a cloned viral genome”, Nat. Med., 11(7):791-796). Briefly, pJFH-1 plasmids encoding full length HCV genome (provided by T. Wakita, National Institute of Infectious Diseases, Japan) were linearized and HCV RNA was synthesized using T7 RiboMAX™ Express Large Scale RNA Production System (Promega). 10 μg of HCV RNA was added to 1.6×10^6 Huh7 cells suspended in 800 ul PBS buffer. A Bio-Rad Gene Pulser system was used to deliver a single pulse at 0.34 kV, 975 μF, using 4 mm electroporation cuvettes. Cells were cultured at 37° C. in a 5% CO2 atmosphere in Dulbecco's modified Eagle's medium (DMEM) supplemented with 10% fetal bovine serum for 10 days (Gibco).
# HCV RNA was amplified from infected Huh7 cells using specific primers targeting the 5′ noncoding region under the following conditions: 10 min at 95° C.; 40 cycles of 94° C. for 15 s and 60° C. for 45 s. Samples were analysed in triplicate and relative expression of HCV RNA normalised to 18s.
# JFH-1 infected Huh7 cells cultured in 6 well plates were treated with HU-210 (100 nM), either alone or with increasing concentrations of the antagonists NlDA-41020 or (S)-SLV-319 (1 nM, 10 nM, 100 nM and 1 μM). Untreated cells and cells treated with CB1 antagonist alone (100 nM) were used as controls. After 24 hours cells were harvested, total RNA extracted, and HCV RNA measured by qPCR. Three replicate experiments were performed for each set of conditions and mean values calculated.
smiles,measurement,setting,value
"COc1ccc(-c2c(C)c(C(=O)NN3CCCCC3)nn2-c2ccc(Cl)cc2Cl)cc1 [NIDA-41020, 1-(2,4-Dichlorophenyl)-5-(4-methoxyphenyl)-4-methyl-N-(1-piperidinyl)-1H-pyrazole-3-carboxamide]",effect on HCV replication (in words),HCV RNA by qPCR (FIG. 9; discussion),inhibited
same,reduction of HCV replication,"CB1 antagonist alone (100 nM), HCV RNA by qPCR (FIG. 8)",~75%
same,effect on the HU-210-induced increase of HCV replication,"HU-210 100 nM plus antagonist 1 nM-1 μM, HCV RNA by qPCR (FIG. 7)",reversed
